Data source: PubChem BioAssay AID652243 (Drosophila RNAi Screening Center, 2013)
The deposit covers about 24,000 reagents; this is an unselected part of those with a known target gene and a result. Of all reagents, 246 (1%) got an active call. 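Plates not normalised; calls are printed but the firefly/Renilla ratio behind them is not deposited; fold cut for lowering reported inconsistently.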 Raw values vary from plate to plate and are shown uncorrected. Not stated in the record: the amount of reagent.

Assay: 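Knock-downs that decrease or increase androgen receptor reporter signal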 (primary screen)
Cells: Drosophila S2R+ cells
Knock-down reagent: long dsRNA against Drosophila genes
Time to read-out: 72 h (48 h, then 24 h hormone)
Conditions: synthetic androgen R1881 at 10 nM for 24 h
Read-out: 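Firefly light from an androgen-responsive reporter and Renilla control light per well, raw and unnormalised, for each of two replicates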
Scale: firefly reporter light: higher = more light from androgen-responsive reporter; Renilla control light: higher = more constitutive control signal (cell number, transfection)
Call rule: 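Hit when the log firefly-to-Renilla ratio dropped or increased by a fixed fold versus the mean of GFP or LacZ controls across duplicate plates; lowering cut given as 1.5 and as 3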
Calls: active = hit: reporter lowered or raised; inactive = no hit

CG10352 (GeneID 32147) [DRSC19353] → firefly reporter light, replicate 1: 2.19e5; firefly reporter light, replicate 2: 2.69e5; Renilla control light, replicate 1: 2.65e6; Renilla control light, replicate 2: 2.33e6; call: inactive
loaf (GeneID 39325) [DRSC09130] → firefly reporter light, replicate 1: 67469; firefly reporter light, replicate 2: 70549; Renilla control light, replicate 1: 1.86e5; Renilla control light, replicate 2: 2.40e5; call: inactive
seq (GeneID 3772396) [DRSC37911] → firefly reporter light, replicate 1: 5.25e5; firefly reporter light, replicate 2: 4.58e5; Renilla control light, replicate 1: 1.30e6; Renilla control light, replicate 2: 1.49e6; call: inactive
kud (GeneID 39882) [DRSC11086] → firefly reporter light, replicate 1: 2.61e5; firefly reporter light, replicate 2: 2.12e5; Renilla control light, replicate 1: 2.36e6; Renilla control light, replicate 2: 1.92e6; call: inactive
CG34367 (GeneID 5740879) [DRSC02238] → firefly reporter light, replicate 1: 2.26e5; firefly reporter light, replicate 2: 2.51e5; Renilla control light, replicate 1: 1.95e6; Renilla control light, replicate 2: 2.23e6; call: inactive
CG34367 (GeneID 5740879) [DRSC02850] → firefly reporter light, replicate 1: 1.41e5; firefly reporter light, replicate 2: 1.36e5; Renilla control light, replicate 1: 1.24e6; Renilla control light, replicate 2: 1.34e6; call: inactive
CG34367 (GeneID 5740879) [DRSC28054] → firefly reporter light, replicate 1: 3.39e5; firefly reporter light, replicate 2: 4.53e5; Renilla control light, replicate 1: 9.39e5; Renilla control light, replicate 2: 9.37e5; call: inactive
CG8777 (GeneID 35921) [DRSC07263] → firefly reporter light, replicate 1: 1.12e6; firefly reporter light, replicate 2: 1.33e6; Renilla control light, replicate 1: 1.15e6; Renilla control light, replicate 2: 1.07e6; call: inactive
CG15629 (GeneID 33679) [DRSC00464] → firefly reporter light, replicate 1: 1.57e5; firefly reporter light, replicate 2: 86000; Renilla control light, replicate 1: 6.80e5; Renilla control light, replicate 2: 5.99e5; call: inactive
CG15629 (GeneID 33679) [DRSC29518] → firefly reporter light, replicate 1: 4.53e5; firefly reporter light, replicate 2: 3.78e5; Renilla control light, replicate 1: 8.68e5; Renilla control light, replicate 2: 8.68e5; call: inactive
Spn42Da (GeneID 49805) [DRSC05025] → firefly reporter light, replicate 1: 2.53e5; firefly reporter light, replicate 2: 2.05e5; Renilla control light, replicate 1: 1.88e6; Renilla control light, replicate 2: 1.46e6; call: inactive
Hsp67Ba (GeneID 39076) [DRSC11191] → firefly reporter light, replicate 1: 77763; firefly reporter light, replicate 2: 77989; Renilla control light, replicate 1: 1.42e6; Renilla control light, replicate 2: 1.27e6; call: inactive
Hsp67Ba (GeneID 39076) [DRSC23678] → firefly reporter light, replicate 1: 3.66e5; firefly reporter light, replicate 2: 5.24e5; Renilla control light, replicate 1: 4.07e5; Renilla control light, replicate 2: 7.12e5; call: inactive
CG14439 (GeneID 31614) [DRSC17931] → firefly reporter light, replicate 1: 3.26e5; firefly reporter light, replicate 2: 3.01e5; Renilla control light, replicate 1: 2.11e6; Renilla control light, replicate 2: 2.12e6; call: inactive
Muc68Ca (GeneID 2768980) [DRSC10312] → firefly reporter light, replicate 1: 6.80e5; firefly reporter light, replicate 2: 4.44e5; Renilla control light, replicate 1: 3.06e6; Renilla control light, replicate 2: 3.16e6; call: inactive
Muc68Ca (GeneID 2768980) [DRSC10313] → firefly reporter light, replicate 1: 2.96e5; firefly reporter light, replicate 2: 2.29e5; Renilla control light, replicate 1: 2.42e6; Renilla control light, replicate 2: 1.70e6; call: inactive
CG31008 (GeneID 318554) [DRSC14028] → firefly reporter light, replicate 1: 1.04e6; firefly reporter light, replicate 2: 6.18e5; Renilla control light, replicate 1: 9.39e5; Renilla control light, replicate 2: 4.60e5; call: inactive
CG31008 (GeneID 318554) [DRSC27234] → firefly reporter light, replicate 1: 2.25e5; firefly reporter light, replicate 2: 3.02e5; Renilla control light, replicate 1: 6.73e5; Renilla control light, replicate 2: 8.93e5; call: inactive
Task6 (GeneID 41671) [DRSC16530] → firefly reporter light, replicate 1: 1.97e5; firefly reporter light, replicate 2: 2.19e5; Renilla control light, replicate 1: 1.92e6; Renilla control light, replicate 2: 2.34e6; call: inactive
CG13066 (GeneID 50270) [DRSC09949] → firefly reporter light, replicate 1: 3.29e5; firefly reporter light, replicate 2: 3.12e5; Renilla control light, replicate 1: 3.02e6; Renilla control light, replicate 2: 2.09e6; call: inactive
CG3339 (GeneID 43295) [DRSC13821] → firefly reporter light, replicate 2: 87286; Renilla control light, replicate 1: 18081; Renilla control light, replicate 2: 1.88e5; call: inactive
CG3339 (GeneID 43295) [DRSC15479] → firefly reporter light, replicate 1: 83418; firefly reporter light, replicate 2: 1.38e5; Renilla control light, replicate 1: 1.68e6; Renilla control light, replicate 2: 2.35e6; call: inactive

As entered above.
kud (GeneID 39882) [DRSC11086], firefly reporter light, replicate 1: 2.61e5
Value for CG15629 (GeneID 33679) [DRSC00464] under “call”: inactive
seq (GeneID 3772396) [DRSC37911], Renilla control light, replicate 2: 1.49e6
